Data reported in publication PMC12183919.
No constants are given. Whether binding was seen depends on the method and setting. In cells and extracts the contact can be indirect. Some binding calls cover weakened binding; strength is not graded here. Tags and fused reporters may be left off the sequences shown.

Protein sequences, listed by entry. Tags and fused reporters are not part of them.
UniProt P21579: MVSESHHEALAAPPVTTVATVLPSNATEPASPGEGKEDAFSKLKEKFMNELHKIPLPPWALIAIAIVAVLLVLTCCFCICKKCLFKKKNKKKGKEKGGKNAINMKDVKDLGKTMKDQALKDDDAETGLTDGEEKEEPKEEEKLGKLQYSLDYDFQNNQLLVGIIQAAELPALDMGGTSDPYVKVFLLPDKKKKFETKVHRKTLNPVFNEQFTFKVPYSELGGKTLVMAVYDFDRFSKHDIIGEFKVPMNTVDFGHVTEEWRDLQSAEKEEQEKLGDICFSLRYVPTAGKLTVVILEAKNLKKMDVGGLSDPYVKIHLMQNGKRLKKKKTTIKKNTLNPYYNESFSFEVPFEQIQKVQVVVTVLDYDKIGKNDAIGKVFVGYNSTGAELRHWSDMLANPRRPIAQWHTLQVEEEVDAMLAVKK
UniProt O14810: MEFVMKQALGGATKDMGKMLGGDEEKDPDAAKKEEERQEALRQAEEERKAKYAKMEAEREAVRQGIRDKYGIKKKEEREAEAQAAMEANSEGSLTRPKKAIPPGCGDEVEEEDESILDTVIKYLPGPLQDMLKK
UniProt P63027: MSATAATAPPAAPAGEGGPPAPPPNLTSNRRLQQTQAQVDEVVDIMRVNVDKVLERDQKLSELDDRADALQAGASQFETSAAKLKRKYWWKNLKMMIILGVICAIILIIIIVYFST

Target: T1, synaptotagmin 13 (SYT13), endogenous in human brain (human (endogenous in brain tissue)) (UniProt Q7L8C5)
T1 sequence: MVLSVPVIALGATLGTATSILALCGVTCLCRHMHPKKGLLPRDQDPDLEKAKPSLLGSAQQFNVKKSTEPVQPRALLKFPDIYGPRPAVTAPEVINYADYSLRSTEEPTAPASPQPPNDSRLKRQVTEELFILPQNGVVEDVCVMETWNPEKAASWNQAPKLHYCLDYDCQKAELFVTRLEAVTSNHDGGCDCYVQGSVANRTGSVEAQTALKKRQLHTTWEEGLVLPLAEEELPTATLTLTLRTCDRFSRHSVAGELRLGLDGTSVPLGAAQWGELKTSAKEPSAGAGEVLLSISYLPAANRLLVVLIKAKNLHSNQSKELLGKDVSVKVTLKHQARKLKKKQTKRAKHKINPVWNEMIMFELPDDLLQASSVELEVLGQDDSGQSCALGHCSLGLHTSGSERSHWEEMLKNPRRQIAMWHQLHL
Test: co-IP; human temporal lobe homogenates (DLB, MSA, controls); IP with anti-SYT13 antibody (MBS9606007), immunoblot

| binding | Substance |
| --- | --- |
| binds | synaptotagmin 1 (SYT1), endogenous in human brain (from UniProt P21579 1-422) |
| binds | Complexin 1 (CPLX1), endogenous in human brain (from UniProt O14810 1-134) |
| binds | vesicle-associated membrane protein 2 (VAMP2), endogenous in human brain (from UniProt P63027 1-116) |
